Assay results: publication doi:10.1101/2022.08.12.503734
These are yes or no findings as the source states them, for the method shown. In cells and extracts the contact can be indirect. Some results given as binding are weak or reduced against the parent protein; the word gives no strength. For part of these data: Where a sequence is shown, tags or fusion partners need not be part of it.

Amino acid sequences for entries named in this document (tags omitted).
UniProt P00546: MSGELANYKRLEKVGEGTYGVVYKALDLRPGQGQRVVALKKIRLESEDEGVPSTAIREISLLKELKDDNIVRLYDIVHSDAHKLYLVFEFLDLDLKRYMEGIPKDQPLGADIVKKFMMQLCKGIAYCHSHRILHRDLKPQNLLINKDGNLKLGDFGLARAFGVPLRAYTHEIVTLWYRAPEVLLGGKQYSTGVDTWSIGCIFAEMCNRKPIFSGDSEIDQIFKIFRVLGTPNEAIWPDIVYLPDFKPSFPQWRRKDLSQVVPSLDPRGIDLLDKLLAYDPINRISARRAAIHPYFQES

Experiments:
[1] = target: T1, GST-Cln2 (S. cerevisiae (budding yeast)) (UniProt P20438); experiment: pull-down
T1 sequence: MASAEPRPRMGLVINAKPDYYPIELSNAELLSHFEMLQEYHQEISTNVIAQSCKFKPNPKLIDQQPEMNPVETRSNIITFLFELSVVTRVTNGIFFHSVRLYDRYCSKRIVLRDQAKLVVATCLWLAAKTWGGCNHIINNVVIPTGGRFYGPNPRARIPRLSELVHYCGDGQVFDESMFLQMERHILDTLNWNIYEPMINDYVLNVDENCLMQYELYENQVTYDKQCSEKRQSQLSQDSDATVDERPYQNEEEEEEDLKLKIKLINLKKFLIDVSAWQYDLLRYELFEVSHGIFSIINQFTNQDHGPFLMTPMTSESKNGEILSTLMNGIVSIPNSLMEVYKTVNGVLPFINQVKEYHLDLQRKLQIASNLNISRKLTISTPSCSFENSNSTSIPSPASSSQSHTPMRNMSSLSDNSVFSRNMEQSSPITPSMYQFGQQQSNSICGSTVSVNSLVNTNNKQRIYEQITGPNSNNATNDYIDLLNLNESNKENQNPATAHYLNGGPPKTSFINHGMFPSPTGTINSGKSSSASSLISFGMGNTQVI

[2] = target: T2, GST-Clb2 (S. cerevisiae (budding yeast)) (UniProt P24869); experiment: pull-down
T2 sequence: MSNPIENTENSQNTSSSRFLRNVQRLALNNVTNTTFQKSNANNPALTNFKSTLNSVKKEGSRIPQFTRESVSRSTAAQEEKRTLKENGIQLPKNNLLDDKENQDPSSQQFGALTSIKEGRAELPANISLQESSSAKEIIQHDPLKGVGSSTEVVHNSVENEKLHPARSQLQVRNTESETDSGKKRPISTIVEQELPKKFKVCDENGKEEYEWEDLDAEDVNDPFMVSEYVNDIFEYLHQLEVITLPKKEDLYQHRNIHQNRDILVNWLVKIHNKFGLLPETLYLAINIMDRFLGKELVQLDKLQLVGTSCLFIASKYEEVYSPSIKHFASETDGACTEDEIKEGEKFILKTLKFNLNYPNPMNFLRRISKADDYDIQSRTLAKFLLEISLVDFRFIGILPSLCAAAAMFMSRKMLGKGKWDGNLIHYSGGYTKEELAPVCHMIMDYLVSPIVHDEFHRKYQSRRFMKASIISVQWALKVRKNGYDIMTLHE

[3] = target: T3, Clb2-3XHA (S. cerevisiae (budding yeast)) (UniProt P24869); experiment: co-IP
T3 sequence: T2 sequence

Measured: binding

Cdk1 (from UniProt P00546 1-298) (enzyme)
binds: all assays above
